According to the supplement of paper PMC10849652:
This is one part of the list.

By UniProt entry, the sequences of proteins in these tests, tags left out. Where a name states a change or a piece, a line headed by the entry shows the natural chain unless it says otherwise.
UniProt Q68D91: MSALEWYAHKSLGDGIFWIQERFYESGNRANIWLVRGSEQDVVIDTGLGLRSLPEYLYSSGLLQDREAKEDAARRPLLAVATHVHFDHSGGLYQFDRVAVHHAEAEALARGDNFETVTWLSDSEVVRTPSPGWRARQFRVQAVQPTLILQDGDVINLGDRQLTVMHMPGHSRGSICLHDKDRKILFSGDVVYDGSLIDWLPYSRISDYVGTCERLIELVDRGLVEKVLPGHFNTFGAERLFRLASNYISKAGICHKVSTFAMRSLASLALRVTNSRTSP
UniProt Q9GZY8: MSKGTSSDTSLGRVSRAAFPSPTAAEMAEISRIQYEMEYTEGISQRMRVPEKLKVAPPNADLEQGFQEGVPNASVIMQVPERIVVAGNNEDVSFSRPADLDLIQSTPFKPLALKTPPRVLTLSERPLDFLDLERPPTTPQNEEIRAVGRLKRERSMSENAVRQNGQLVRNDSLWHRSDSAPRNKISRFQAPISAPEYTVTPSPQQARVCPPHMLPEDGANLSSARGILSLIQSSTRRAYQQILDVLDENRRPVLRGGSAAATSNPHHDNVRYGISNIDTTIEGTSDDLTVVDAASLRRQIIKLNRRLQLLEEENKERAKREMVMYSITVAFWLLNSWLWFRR
UniProt Q96N66: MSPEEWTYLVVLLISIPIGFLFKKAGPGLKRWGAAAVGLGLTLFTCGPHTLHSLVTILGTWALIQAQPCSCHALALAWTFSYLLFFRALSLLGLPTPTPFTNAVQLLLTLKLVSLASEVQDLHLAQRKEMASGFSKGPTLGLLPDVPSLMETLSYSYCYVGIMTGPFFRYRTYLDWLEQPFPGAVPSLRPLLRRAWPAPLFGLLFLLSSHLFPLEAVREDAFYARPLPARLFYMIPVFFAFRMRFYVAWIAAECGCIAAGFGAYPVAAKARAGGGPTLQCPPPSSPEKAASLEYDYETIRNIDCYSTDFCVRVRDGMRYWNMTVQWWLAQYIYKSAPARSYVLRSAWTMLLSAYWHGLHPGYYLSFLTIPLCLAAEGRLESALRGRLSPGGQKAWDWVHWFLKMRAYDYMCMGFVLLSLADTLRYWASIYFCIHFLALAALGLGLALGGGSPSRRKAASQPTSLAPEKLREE
UniProt Q06413, whole entry, looked up: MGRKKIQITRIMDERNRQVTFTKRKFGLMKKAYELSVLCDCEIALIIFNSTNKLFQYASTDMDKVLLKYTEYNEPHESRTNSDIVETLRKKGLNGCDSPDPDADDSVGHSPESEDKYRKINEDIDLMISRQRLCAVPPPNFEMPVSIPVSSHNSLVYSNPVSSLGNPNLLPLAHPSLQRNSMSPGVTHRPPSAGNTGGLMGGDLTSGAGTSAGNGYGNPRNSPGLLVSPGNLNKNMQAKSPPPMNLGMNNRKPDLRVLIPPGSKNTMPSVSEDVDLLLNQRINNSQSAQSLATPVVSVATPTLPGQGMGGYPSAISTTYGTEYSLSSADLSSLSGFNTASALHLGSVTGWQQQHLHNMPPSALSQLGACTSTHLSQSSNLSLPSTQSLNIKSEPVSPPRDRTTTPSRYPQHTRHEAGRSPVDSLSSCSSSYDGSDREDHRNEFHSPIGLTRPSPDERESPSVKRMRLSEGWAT
UniProt Q9ULC4: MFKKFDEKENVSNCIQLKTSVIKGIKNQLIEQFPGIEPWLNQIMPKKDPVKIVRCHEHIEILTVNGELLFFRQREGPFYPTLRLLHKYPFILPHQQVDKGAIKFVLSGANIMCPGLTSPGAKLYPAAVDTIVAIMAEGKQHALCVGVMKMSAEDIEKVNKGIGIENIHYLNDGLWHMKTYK
UniProt Q6UB28: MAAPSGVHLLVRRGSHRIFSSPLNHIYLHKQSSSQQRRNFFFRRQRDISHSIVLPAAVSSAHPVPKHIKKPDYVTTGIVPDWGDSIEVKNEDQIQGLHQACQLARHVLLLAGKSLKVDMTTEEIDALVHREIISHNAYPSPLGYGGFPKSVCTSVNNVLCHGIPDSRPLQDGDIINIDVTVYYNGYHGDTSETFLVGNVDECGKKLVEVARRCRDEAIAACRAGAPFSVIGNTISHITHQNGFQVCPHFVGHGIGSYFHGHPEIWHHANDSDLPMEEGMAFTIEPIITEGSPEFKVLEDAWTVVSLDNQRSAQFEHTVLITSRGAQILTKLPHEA
UniProt Q96RQ3: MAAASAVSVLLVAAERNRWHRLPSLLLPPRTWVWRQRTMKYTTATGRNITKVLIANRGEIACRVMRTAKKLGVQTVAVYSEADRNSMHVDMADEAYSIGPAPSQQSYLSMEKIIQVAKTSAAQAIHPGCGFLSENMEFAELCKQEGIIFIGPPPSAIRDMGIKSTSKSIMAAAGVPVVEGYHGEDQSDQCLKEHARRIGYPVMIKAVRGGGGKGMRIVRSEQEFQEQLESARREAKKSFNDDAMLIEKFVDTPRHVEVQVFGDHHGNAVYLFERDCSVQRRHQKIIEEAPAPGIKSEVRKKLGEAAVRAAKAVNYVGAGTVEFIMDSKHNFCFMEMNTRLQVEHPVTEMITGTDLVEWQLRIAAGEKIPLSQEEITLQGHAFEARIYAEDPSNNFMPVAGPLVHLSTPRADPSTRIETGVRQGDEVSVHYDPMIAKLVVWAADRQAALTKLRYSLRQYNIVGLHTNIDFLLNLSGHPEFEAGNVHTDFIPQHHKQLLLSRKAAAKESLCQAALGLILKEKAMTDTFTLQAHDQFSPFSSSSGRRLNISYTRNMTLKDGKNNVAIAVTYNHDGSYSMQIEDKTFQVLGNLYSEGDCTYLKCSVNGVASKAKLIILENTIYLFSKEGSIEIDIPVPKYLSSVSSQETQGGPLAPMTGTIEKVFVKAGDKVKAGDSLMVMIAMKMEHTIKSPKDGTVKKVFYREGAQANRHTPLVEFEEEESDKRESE
UniProt Q9NWA0: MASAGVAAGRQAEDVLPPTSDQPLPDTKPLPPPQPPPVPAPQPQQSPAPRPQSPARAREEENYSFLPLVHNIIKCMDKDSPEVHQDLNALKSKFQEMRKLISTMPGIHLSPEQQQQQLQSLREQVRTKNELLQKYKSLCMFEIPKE
UniProt O00255, whole entry, looked up: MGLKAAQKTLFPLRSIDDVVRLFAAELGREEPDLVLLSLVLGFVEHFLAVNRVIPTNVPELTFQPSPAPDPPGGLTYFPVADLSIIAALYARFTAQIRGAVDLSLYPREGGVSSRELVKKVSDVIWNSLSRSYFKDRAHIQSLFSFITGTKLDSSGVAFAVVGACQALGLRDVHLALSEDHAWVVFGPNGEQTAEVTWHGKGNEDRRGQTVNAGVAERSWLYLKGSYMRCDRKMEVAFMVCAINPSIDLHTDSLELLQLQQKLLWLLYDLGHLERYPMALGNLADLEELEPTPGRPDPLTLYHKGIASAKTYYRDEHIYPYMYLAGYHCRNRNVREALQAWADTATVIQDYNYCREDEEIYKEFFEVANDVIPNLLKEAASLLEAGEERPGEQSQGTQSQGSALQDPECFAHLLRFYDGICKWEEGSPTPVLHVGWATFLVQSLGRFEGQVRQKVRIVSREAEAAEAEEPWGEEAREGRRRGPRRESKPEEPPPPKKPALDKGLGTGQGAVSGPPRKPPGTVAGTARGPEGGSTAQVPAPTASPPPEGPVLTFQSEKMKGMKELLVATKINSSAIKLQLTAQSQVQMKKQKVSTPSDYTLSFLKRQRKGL
UniProt O95568: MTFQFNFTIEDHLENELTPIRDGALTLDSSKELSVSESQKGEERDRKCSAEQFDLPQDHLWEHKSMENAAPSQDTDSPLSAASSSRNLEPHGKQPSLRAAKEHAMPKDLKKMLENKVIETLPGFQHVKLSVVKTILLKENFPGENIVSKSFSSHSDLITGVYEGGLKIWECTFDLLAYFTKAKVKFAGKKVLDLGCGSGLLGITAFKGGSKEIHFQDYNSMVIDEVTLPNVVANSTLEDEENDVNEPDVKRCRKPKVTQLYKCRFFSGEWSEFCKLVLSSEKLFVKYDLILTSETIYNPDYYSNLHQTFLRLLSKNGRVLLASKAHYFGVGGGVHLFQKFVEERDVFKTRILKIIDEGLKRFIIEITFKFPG
UniProt O95140: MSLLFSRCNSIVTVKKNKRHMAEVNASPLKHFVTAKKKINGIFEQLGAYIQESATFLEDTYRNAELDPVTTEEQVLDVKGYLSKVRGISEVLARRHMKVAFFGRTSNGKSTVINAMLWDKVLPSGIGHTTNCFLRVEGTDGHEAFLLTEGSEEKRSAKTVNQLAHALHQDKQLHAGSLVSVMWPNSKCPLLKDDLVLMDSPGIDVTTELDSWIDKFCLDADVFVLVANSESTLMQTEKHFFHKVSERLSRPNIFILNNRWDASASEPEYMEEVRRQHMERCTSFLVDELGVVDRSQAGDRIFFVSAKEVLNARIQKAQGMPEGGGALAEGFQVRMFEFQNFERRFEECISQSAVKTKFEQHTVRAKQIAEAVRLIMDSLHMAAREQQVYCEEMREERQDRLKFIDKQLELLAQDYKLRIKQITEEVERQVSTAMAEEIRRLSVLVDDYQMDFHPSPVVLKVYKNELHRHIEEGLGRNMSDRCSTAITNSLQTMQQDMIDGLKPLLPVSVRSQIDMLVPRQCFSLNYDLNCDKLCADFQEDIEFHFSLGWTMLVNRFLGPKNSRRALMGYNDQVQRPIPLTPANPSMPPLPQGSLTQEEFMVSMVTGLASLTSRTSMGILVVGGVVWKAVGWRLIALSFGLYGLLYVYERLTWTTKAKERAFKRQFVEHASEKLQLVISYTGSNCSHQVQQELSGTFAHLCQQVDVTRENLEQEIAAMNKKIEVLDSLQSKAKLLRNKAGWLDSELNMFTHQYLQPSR
UniProt Q7L2J0: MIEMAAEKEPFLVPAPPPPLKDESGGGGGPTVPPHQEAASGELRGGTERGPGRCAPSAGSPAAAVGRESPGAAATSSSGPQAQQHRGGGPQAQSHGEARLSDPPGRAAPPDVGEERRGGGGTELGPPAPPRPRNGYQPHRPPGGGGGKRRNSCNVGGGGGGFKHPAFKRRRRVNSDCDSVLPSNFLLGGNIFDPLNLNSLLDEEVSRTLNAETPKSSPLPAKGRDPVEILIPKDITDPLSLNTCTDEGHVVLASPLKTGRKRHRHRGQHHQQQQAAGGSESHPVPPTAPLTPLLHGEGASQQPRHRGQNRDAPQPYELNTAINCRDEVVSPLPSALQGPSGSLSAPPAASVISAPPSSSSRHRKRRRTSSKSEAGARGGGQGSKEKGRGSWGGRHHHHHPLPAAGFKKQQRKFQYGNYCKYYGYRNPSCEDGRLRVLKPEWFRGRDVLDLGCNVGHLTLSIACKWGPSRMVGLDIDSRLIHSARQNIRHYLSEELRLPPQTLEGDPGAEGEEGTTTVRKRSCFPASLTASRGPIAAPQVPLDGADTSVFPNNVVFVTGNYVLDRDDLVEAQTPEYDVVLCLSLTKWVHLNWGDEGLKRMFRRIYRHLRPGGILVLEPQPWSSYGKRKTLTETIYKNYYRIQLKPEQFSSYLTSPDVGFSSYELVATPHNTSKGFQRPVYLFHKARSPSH
UniProt Q8IVS2: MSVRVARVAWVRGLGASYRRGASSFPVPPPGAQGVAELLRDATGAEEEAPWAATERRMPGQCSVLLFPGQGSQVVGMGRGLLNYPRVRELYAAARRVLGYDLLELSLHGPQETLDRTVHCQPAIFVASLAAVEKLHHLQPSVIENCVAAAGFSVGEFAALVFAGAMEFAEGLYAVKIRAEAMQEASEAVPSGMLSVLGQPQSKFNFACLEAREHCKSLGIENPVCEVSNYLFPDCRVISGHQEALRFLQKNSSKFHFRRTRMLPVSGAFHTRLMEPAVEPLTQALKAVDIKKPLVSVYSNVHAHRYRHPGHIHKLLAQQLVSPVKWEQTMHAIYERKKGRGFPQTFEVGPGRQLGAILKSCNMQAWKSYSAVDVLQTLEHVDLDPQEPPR
UniProt Q86XN8: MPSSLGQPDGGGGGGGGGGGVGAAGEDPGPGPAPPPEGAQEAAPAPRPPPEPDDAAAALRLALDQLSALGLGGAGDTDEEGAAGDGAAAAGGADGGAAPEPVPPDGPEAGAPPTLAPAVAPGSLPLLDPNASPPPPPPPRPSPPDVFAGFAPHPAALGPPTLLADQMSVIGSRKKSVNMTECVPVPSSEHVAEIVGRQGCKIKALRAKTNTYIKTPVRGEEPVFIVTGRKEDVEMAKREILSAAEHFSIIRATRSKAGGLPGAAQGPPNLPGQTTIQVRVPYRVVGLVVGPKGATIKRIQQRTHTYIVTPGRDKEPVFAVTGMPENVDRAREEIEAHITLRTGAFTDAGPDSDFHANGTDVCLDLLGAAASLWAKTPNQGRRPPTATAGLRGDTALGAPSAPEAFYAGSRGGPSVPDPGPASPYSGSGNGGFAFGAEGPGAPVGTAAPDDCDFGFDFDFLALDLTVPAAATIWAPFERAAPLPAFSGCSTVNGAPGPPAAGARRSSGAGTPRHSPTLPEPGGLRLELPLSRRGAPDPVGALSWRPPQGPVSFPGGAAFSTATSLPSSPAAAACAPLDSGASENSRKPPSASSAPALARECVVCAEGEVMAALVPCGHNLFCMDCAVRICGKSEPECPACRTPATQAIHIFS
UniProt Q9H204: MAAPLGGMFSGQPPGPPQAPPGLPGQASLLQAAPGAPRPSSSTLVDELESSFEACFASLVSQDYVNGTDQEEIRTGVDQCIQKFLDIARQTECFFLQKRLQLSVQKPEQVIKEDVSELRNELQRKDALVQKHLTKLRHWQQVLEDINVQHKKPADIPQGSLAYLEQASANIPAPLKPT

What follows are targets tested with Cc1ncc(-c2ccnc(Nc3ccc(S(C)(=O)=O)cc3)n2)n1C(C)C (assay: log2 fold change, soluble protein after heating vs DMSO (PISA); higher = thermal stabilisation; K562 lysate, 10 uM; active = over 0.2 and 3.5 SD of the protein, either way, in both replicates (recomputed)).
Method in brief: (§1)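 Soluble protein was defined as the supernatant remaining after 21,000xg for 90 min, following pooling of heated aliquots and adjustment to 0.5% NP-40 at 4°C. Before that, crude K562 extract at 1 mg/mL protein in PBS pH 7.4 with 1 mM MgCl2 was treated with 10 μM compound for 30 min and heated for 3 min across 48°C-58°C. Quantification used TMTpro 16plex LC-MS/MS with channel sums equalised, and values are log-two fold changes in thermal stability relative to solvent controls from duplicates.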

log2 fold change, inactive:
MCM3 isoform 2 (UniProt P25205) 0.002
MBLAC2 (UniProt Q68D91) -0.126
MFF isoform 2 (UniProt Q9GZY8) 0.008
MED15 (UniProt Q96RN5) 0.015
MBD4 (UniProt O95243) 0.01
MBOAT7 (UniProt Q96N66) 0.006
MEF2C isoform 2 (UniProt Q06413) 0.049
MED20 (UniProt Q9H944) 0.028
MDC1 (UniProt Q14676) -0.017
MCTS1 isoform 3 (UniProt Q9ULC4) 0.009
MDH2 (UniProt P40926) -0.024
MDN1 (UniProt Q9NU22) 0.036
METAP1D (UniProt Q6UB28) 0.019
MEF2C isoform 5 (UniProt Q06413) 0.026
METTL14 (UniProt Q9HCE5) 0.007
MED24 (UniProt O75448) 0.034
MCCC1 (UniProt Q96RQ3) 0.027
MFSD4B (UniProt Q5TF39) -0.032
MEA1 (UniProt Q16626) 0.015
MED9 (UniProt Q9NWA0) 0.007
MBIP (UniProt Q9NS73) -0.005
MED12 isoform 2 (UniProt Q93074) -0.009
MFSD1 isoform 6 (UniProt Q9H3U5) -0.014
MEN1 (UniProt O00255) -0.004
METTL18 (UniProt O95568) -0.011
MFN2 (UniProt O95140) 0.015
MEPCE (UniProt Q7L2J0) -0.005
MCAT (UniProt Q8IVS2) -0.037
MBD3 (UniProt O95983) 0.019
MDH1 isoform 3 (UniProt P40925) 0.033
MCAM (UniProt P43121) 0.013
MATR3 (UniProt P43243) -0.005
MDP1 (UniProt Q86V88) 0.032
MEX3D isoform 3 (UniProt Q86XN8) 0.016
MCU (UniProt Q8NE86) 0.072
METTL3 (UniProt Q86U44) 0.043
MCUR1 (UniProt Q96AQ8) 0.014
MED28 (UniProt Q9H204) 0.053
METAP1 (UniProt P53582) -0.021

What follows are targets tested with Cn1cc(-c2ccc3c(c2)CCN3C(=O)Cc2cccc(C(F)(F)F)c2)c2c(N)ncnc21 in the same assay as above.
Method in brief: as §1

log2 fold change, inactive:
MCM3 isoform 2 (UniProt P25205) 0.008
MBLAC2 (UniProt Q68D91) 0.059
MFF isoform 2 (UniProt Q9GZY8) -0.012
MED15 (UniProt Q96RN5) 0.02
MBD4 (UniProt O95243) 0.08
MBOAT7 (UniProt Q96N66) -0.036
MEF2C isoform 2 (UniProt Q06413) 0.067
MED20 (UniProt Q9H944) 0.009
MDC1 (UniProt Q14676) 0.004
MCTS1 isoform 3 (UniProt Q9ULC4) -0.009
MDH2 (UniProt P40926) -0.007
MDN1 (UniProt Q9NU22) 0.008
METAP1D (UniProt Q6UB28) -0.059
MEF2C isoform 5 (UniProt Q06413) 0.027
METTL14 (UniProt Q9HCE5) -0.029
MED24 (UniProt O75448) -0.006
MCCC1 (UniProt Q96RQ3) 0.008
MFSD4B (UniProt Q5TF39) 0.088
MEA1 (UniProt Q16626) 0.014
MED9 (UniProt Q9NWA0) -0.076
MBIP (UniProt Q9NS73) -0.007
MED12 isoform 2 (UniProt Q93074) 0.01
MFSD1 isoform 6 (UniProt Q9H3U5) 0.002
MEN1 (UniProt O00255) -0.006
METTL18 (UniProt O95568) 0.009
MFN2 (UniProt O95140) 0.039
MEPCE (UniProt Q7L2J0) 0.033
MCAT (UniProt Q8IVS2) 0.054
MBD3 (UniProt O95983) 0.021
MDH1 isoform 3 (UniProt P40925) 0.001
MCAM (UniProt P43121) -0.023
MATR3 (UniProt P43243) 0.022
MDP1 (UniProt Q86V88) 0.021
MEX3D isoform 3 (UniProt Q86XN8) -0.16
MCU (UniProt Q8NE86) 0.006
METTL3 (UniProt Q86U44) 0.019
MCUR1 (UniProt Q96AQ8) 0.002
MED28 (UniProt Q9H204) -0.006
METAP1 (UniProt P53582) 0.009
